Data: the supplement of paper PMC7024190
Counter-ions that a name gives are not always drawn. The list shows a part of the results. Repeats in this data set agree poorly, so a single value says little.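 The cells were human embryonic kidney cells carrying a Renilla luciferase gene, driven by the HSV-TK promoter, on a plasmid put in briefly by transfection. This is the first-round screen of about ten thousand compounds, looking for ones that raise reporter output.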

Test system: HEK 293FT
Experiment: log relative Renilla luciferase luminescence (reporter expression vs reference, reference not stated) (log (base not stated)); higher = higher recombinant reporter expression
Conditions: 10 µM; time after transfection 48 h

| Structure (SMILES) | log |
| --- | --- |
| O=C1c2c(O)cccc2C([C@@H]2O[C@H](CO)[C@@H](O)[C@H](O)[C@H]2O)c2cc(CO)cc(O)c21 (stereo not given in full) [Barbaloin] | 0.00131 |
| CCOC(=O)C1=C(C)NC(C)=C(C(=O)OCC)C1c1ccccn1 | -0.0451 |
| NC(N)=NC(N)=Nc1cccc(Cl)c1 [m-Chlorophenylbiguanide] | -0.0464 |
| CCC(=O)OCC(=O)[C@@]1(O)CC[C@H]2[C@@H]3CCC4=CC(=O)C=C[C@]4(C)[C@H]3[C@@H](O)C[C@@]21C [Prednisolone-21-propionate] | 0.076 |
| O=C(O)c1cc(=O)c2ccccc2o1 [Chromocarb] | -0.0238 |
| COc1ccc2c(c1)C(=O)N(CCc1ccc(S(=O)(=O)NC(=O)NC3CCCCC3)cc1)C(=O)C2(C)C [Gliquidone] | -0.801 |
| Cc1cc(O)c2c3c4c(cc(O)c13)C(C)(C)C(=O)c1c(O)cc(O)c(c1-4)C2=O [Heliomycin] | 0.056 |
| CN1[C@@H]2CC[C@H]1C[C@@H](OC(c1ccccc1)c1ccccc1)C2 [Benztropine hydrobromide] | -0.389 |
| Oc1ccc(Cl)cc1Sc1cc(Cl)ccc1O [Fenticlor] | -0.0398 |
| CC1(C)O[C@@H]2C[C@H]3[C@@H]4CCC5=CC(=O)C=C[C@]5(C)[C@@]4(F)[C@@H](O)C[C@]3(C)[C@]2(C(=O)CO)O1 [Triamcinolone acetonide] | 0.0279 |
| COC(=O)C1=C(C)NC(C)=C(C(=O)OCCN2CCN(C(c3ccccc3)c3ccccc3)CC2)C1c1cccc([N+](=O)[O-])c1 (stereo not given) [Manidipine Dihydrochloride] | -0.0418 |
| O=C1c2ccccc2C(=O)c2c1ccc(O)c2O [Alizarin] | -0.0545 |
| Nc1ccc(S(=O)(=O)Nc2ccc(Cl)nn2)cc1 [Sulfachlorpyridazine] | 0.128 |
| O=C(O)CCCNC(=O)c1ccccn1 [Gaba-picolinoyl-N] | -0.189 |
| CCn1cnc(C(=O)NC)c1C(=O)NC [Ethylnorantifeine] | -1.05 |
| CC(C)(C)C(=O)OCC(=O)[C@@]1(O)CC[C@H]2[C@@H]3CCC4=CC(=O)C=C[C@]4(C)[C@H]3[C@@H](O)C[C@@]21C [Prednisolone trimethylacetate] | 0.0529 |
| CO[C@H]1C=CO[C@@]2(C)Oc3c(C)c(O)c4c(O)c(c(C=O)c(O)c4c3C2=O)NC(=O)C(C)=CC=C[C@H](C)[C@H](O)[C@@H](C)[C@@H](O)[C@@H](C)[C@H](OC(C)=O)[C@@H]1C [3-Formylrifamycin] | -0.0993 |
| CC1=C(O)c2ccccc2C(=O)C1=O [Phthiocol] | -0.395 |
| CCCc1nn(C)c2c(=O)[nH]c(-c3cc(S(=O)(=O)N4CCN(C)CC4)ccc3OCC)nc12 [Sildenafil Citrate] | -0.29 |
| CCC(NC(C)C)C(O)c1ccc(O)c2[nH]c(=O)ccc12 (stereo not given) [Procaterol Hydrochloride] | 0.0507 |
| O=C1C=Cc2cc(Br)ccc2C1=O [Bonaphton] | -0.0418 |
| C[C@]12CCC(=O)C=C1CC[C@@H]1[C@@H]2[C@@H](O)C[C@@]2(C)[C@H]1CC[C@]2(O)C(=O)COC(=O)CCC(=O)O [Hydrocortisone hemisuccinate] | -0.218 |
| O[Si](CCCN1CCCCC1)(c1ccccc1)C1CCCCC1 (stereo not given) [Hexahydrosiladifenidol] | 0.0165 |
| Cc1oc(=O)oc1CN1CCN(c2cc3c(cc2F)c(=O)c(C(=O)O)c2n3C(C)S2)CC1 (stereo not given) [Prulifloxacin] | 0.128 |
| CCN(CC)CCSC(=O)C(c1ccccc1)c1ccccc1 [Tifenamil] | 0.193 |

An excerpt from above in order of molecular weight, smallest number first.

| Structure (SMILES) | log |
| --- | --- |
| CCN(CC)CCSC(=O)C(c1ccccc1)c1ccccc1 [Tifenamil] | 0.193 |
| CC1(C)O[C@@H]2C[C@H]3[C@@H]4CCC5=CC(=O)C=C[C@]5(C)[C@@]4(F)[C@@H](O)C[C@]3(C)[C@]2(C(=O)CO)O1 [Triamcinolone acetonide] | 0.0279 |
| C[C@]12CCC(=O)C=C1CC[C@@H]1[C@@H]2[C@@H](O)C[C@@]2(C)[C@H]1CC[C@]2(O)C(=O)COC(=O)CCC(=O)O [Hydrocortisone hemisuccinate] | -0.218 |
